These are yes or no findings as the source states them, for the method shown. Some entries that bind do so weakly or less than the wild type. One block for each binder: values may come before it.
Target: full-length UPL3 bait (A. thaliana) (UniProt Q6WWW4)
Assay: two-hybrid; GAL4-based two-hybrid system 3 (Clontech); baits in pGBKT7-BD, preys in pGADT7-AD; growth on SD/-LTH or SD/-ALTH

The chains behind the UniProt entries cited, without tags or fusion partners.
UniProt Q6WWW4: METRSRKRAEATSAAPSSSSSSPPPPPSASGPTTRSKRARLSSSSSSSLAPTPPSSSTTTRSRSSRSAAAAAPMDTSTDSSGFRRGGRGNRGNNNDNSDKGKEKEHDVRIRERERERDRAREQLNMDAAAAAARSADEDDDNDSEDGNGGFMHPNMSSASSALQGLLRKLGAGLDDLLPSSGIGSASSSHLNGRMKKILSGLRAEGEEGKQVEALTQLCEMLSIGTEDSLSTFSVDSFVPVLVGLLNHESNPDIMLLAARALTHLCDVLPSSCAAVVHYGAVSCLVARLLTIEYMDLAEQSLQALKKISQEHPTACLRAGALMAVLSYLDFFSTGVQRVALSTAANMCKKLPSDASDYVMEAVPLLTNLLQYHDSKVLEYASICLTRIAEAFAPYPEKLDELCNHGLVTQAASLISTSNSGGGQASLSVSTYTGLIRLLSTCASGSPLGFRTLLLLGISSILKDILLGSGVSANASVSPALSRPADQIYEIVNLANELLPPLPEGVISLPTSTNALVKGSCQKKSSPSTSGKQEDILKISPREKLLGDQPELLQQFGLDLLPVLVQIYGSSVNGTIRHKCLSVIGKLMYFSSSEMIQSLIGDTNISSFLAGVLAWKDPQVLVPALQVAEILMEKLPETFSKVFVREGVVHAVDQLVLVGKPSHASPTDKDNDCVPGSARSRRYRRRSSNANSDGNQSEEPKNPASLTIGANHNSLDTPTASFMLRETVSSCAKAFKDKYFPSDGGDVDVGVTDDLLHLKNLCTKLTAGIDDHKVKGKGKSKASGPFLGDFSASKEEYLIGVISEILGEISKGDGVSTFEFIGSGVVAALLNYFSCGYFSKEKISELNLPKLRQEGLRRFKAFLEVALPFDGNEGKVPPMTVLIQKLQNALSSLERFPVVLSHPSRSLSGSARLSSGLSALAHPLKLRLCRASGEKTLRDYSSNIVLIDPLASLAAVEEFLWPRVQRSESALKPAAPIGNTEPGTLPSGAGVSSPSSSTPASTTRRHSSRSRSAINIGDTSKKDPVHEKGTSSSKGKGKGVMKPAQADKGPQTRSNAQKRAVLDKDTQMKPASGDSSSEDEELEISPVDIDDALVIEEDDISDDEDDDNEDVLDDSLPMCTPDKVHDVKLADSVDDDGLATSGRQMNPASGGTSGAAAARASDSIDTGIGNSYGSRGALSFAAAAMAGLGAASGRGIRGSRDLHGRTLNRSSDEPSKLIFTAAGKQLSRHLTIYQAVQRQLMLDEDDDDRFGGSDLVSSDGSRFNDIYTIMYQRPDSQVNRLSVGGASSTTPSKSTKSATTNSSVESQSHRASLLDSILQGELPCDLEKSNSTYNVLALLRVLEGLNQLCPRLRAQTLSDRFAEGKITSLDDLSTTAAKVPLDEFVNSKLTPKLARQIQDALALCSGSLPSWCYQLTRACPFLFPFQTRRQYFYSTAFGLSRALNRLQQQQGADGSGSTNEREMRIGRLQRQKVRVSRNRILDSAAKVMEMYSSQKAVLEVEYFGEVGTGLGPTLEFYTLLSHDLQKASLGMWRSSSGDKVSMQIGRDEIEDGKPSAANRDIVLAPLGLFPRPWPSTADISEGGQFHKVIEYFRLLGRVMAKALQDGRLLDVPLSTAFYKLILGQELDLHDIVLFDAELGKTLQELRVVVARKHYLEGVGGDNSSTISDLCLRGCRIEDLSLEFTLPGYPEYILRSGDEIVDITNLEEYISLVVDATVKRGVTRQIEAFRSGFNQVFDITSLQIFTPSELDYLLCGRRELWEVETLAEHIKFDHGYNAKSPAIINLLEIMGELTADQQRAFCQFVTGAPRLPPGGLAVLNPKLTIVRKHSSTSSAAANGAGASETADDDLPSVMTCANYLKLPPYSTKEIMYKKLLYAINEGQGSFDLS

binding: binds
B1: UBP12 (two-hybrid prey) (enzyme, UniProt Q9FPT1 1-1116)
chain: MTMMTPPPVDQPEDEEMLVPNSDLVDGPAQPMEVTQPETAASTVENQPAEDPPTLKFTWTIPNFSRQNTRKHYSDVFVVGGYKWRILIFPKGNNVDHLSMYLDVSDAASLPYGWSRYAQFSLAVVNQIHTRYTVRKETQHQFNARESDWGFTSFMPLSELYDPSRGYLVNDTVLVEAEVAVRKVLDYWSYDSKKETGFVGLKNQGATCYMNSLLQTLYHIPYFRKAVYHMPTTENDAPTASIPLALQSLFYKLQYNDTSVATKELTKSFGWDTYDSFMQHDVQELNRVLCEKLEDKMKGTVVEGTIQQLFEGHHMNYIECINVDFKSTRKESFYDLQLDVKGCKDVYASFDKYVEVERLEGDNKYHAEGHGLQDAKKGVLFIDFPPVLQLQLKRFEYDFMRDTMVKINDRYEFPLELDLDREDGKYLSPDADRSVRNLYTLHSVLVHSGGVHGGHYYAFIRPTLSDQWYKFDDERVTKEDLKRALEEQYGGEEELPQTNPGFNNNPPFKFTKYSNAYMLVYIRESDKDKIICNVDEKDIAEHLRVRLKKEQEEKEDKRRYKAQAHLYTIIKVARDEDLKEQIGKDIYFDLVDHDKVRSFRIQKQTPFQQFKEEVAKEFGVPVQLQRFWIWAKRQNHTYRPNRPLTPQEELQPVGQIREASNKANTAELKLFLEVEHLDLRPIPPPEKSKEDILLFFKLYDPEKAVLSYAGRLMVKSSSKPMDITGKLNEMVGFAPDEEIELFEEIKFEPCVMCEHLDKKTSFRLCQIEDGDIICFQKPLVNKEIECLYPAVPSFLEYVQNRQLVRFRALEKPKEDEFVLELSKQHTYDDVVEKVAEKLGLDDPSKLRLTSHNCYSQQPKPQPIKYRGVDHLSDMLVHYNQTSDILYYEVLDIPLPELQGLKTLKVAFHHATKEEVVIHNIRLPKQSTVGDVINELKTKVELSHPDAELRLLEVFYHKIYKIFPSTERIENINDQYWTLRAEEIPEEEKNIGPNDRLILVYHFAKETGQNQQVQNFGEPFFLVIHEGETLEEIKNRIQKKLHVSDEDFAKWKFAFMSMGRPEYLQDTDVVYNRFQRRDVYGAFEQYLGLEHADTTPKRAYAANQNRHAYEKPVKIYN

binding: binds weakly
B2: ubiquitin-conjugating enzyme 35 (UBC35) (two-hybrid prey) (enzyme, UniProt Q94A97 1-153)
chain: MANSNLPRRIIKETQRLLSEPAPGISASPSEDNMRYFNVMILGPTQSPYEGGVFKLELFLPEEYPMAAPKVRFLTKIYHPNIDKLGRICLDILKDKWSPALQIRTVLLSIQALLSAPNPDDPLSENIAKHWKSNEAEAVDTAKEWTRLYASGA
